Our source for the outcome values is PubChem BioAssay (EPA / NIEHS).

Shown are results outside the selection of hits, which stands elsewhere. Results filed as inconclusive are left out. Calls of active or inactive are those of the source. The calls were made as follows: active = hit-call score of the fitted dose curve at least 0.9, where 1 is the maximum; inconclusive = response in the unintended direction; inactive = score below 0.9.

The nature of the experiment: TOX21_TRB_BLA_Antagonist_Followup_viability: Viability Assessment in the Tox21 Thyroid Hormone Receptor beta Antagonism Beta-lactamase (BLA) Follow-Up Assay (AID 2283961). The essentials:
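Cytotoxicity is measured in parallel with the antagonist-mode TRβ beta-lactamase screen, using ATP-coupled luciferase luminescence. Engineered HEK293T cells are treated for 18 h with 11-point compound series in triplicate.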
In the case of `COc1cc([C@@H]2c3cc4c(cc3[C@H](O)[C@H]3COC(=O)[C@H]23)OCO4)cc(OC)c1OC`, the outcome was inactive.

Turning to `CC(=O)O[C@@]12CO[C@@H]1C[C@H](O)[C@@]1(C)C(=O)[C@H](O)C3=C(C)[C@@H](OC(=O)[C@H](O)[C@@H](NC(=O)OC(C)(C)C)c4ccccc4)C[C@@](O)([C@@H](OC(=O)c4ccccc4)[C@H]21)C3(C)C`, the molecule was called inactive. Consider `CCCCCCC[N+](CC)(CC)CCCCc1ccc(Cl)cc1`, for which the call was inactive.
